Reference: US7566697B2 (Amylin Pharmaceuticals, Inc., priority 2002, dated 2009)

Assay: general procedure: Boc solid-phase peptide synthesis; TAMPAL resin (MBHA) for thioesters; Pam resin for test peptides; HBTU/DIEA (in situ neutralization)
Conditions: whole synthesis, scale of the general procedure 0.25 mmol

Substance	difficulty met	isolated yield
LYRAE(OFm)-thioester	The OFm group was associated with the presence of multiple impurities	–
Fmoc-D(Troc)YAKYAKL	–	15%
